Record: PubChem BioAssay AID1259308 (NCATS, 2017)
Here is a random part of about 59,000 reagents. About 1,510 of them (2.6%) count as active. 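Calls use total luciferase alone and ignore viability, so some active siRNAs may act by altering cell number.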 Entries without a mark were called inactive. The numbers tell different reagents against one gene apart.

Aim: 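Candidate targets for better recombinant protein yield in mammalian cells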 (primary screen)
Cell system: human HEK293 embryonic kidney cells stably expressing firefly luciferase (HEK-CMV-Luc2-Hygro)
Reagents: single siRNA against human genes, 0.8 pmol siRNA per well
Time to read-out: 72 h
Detection: 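Luciferase light (ONE-Glo) measured on one replicate plate set and viability (CellTiter-Glo) on the other, scaled to a negative control siRNA, with robust z-scores and luciferase per cell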
Direction: total luciferase, z-score and total luciferase, % of control: higher = more reporter protein produced; luciferase per cell, z-score: higher = more reporter output per viable cell; viable cells, % of control: higher = more viable cells
Rule for the call: 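An siRNA counts as active if its total luciferase robust z-score exceeds 3; genes with two or more such siRNAs out of three were retested with fresh siRNAs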
Meaning of the calls: active = raised luciferase; inactive = no rise

gene	reagent no.	total luciferase, z-score	total luciferase, % of control	luciferase per cell, z-score	viable cells, % of control
BICD2	1	-0.419	73.6	-0.654	97.7
BICD2	2	0.431	90.5	-0.0877	103
BICD2	3	-0.164	78.6	0.123	85.1
CDC14C	1	3.33 (active)	148	2.32	89.8
CDC14C	2	-0.666	68.6	-0.498	87.4
CDC14C	3	-0.683	68.3	-1.11	102
KLHL42	1	-1.95	43.1	-1.93	80
KLHL42	2	-0.537	71.2	0.237	74.8
KLHL42	3	-0.259	76.7	0.341	78.4
APRG1	1	-0.372	74.5	0.469	73.6
APRG1	2	-1.08	60.4	-0.886	85.2
APRG1	3	0.452	90.9	-0.326	111
MROH3P	1	0.573	93.3	-0.0265	105
MROH3P	2	-0.61	69.8	-0.921	99.3
MROH3P	3	0.519	92.2	0.595	88.1
MROH3P	4	-0.576	70.4	-0.75	95.9
MROH3P	5	2.54	132	3.19	63.8
MROH3P	6	-0.764	66.7	-0.767	91.2
ISLR	1	-0.742	67.1	-0.632	88.6
ISLR	2	-0.183	78.3	-0.228	92.9
ISLR	3	-0.548	71	-1.13	107
RNF111	1	-0.487	72.2	-0.985	105
RNF111	2	0.74	96.6	1.35	75.7
RNF111	3	-0.973	62.5	-1.37	100
ZNHIT2	1	-0.311	75.7	0.18	80.7
ZNHIT2	2	0.22	86.3	-0.147	100
ZNHIT2	3	-0.546	71	-0.0444	80.3
ZNF716	1	1.52	112	0.912	98.5
ZNF716	2	-0.166	78.6	-0.463	99.2
ZNF716	3	1.34	109	1.15	89.5
PHOSPHO1	1	0.137	84.6	0.087	92.4
PHOSPHO1	2	2.79	137	1.46	104
PHOSPHO1	3	-1.26	56.9	-1.4	92
MYL1	1	1.43	110	1.59	81.1
MYL1	2	0.0719	83.3	0.37	84.5
MYL1	3	0.0434	82.7	0.173	88.3
CHN1	1	-0.0994	79.9	-0.319	97.1
CHN1	2	-0.574	70.5	-1.52	118
CHN1	3	3.14 (active)	144	3.02	72.8
OR4X2	1	-1.21	57.8	-0.379	71.4
OR4X2	2	0.0455	82.8	-0.95	119
OR4X2	3	0.227	86.4	0.192	91.8
DUSP7	1	0.774	97.3	1.01	83.4
DUSP7	2	-0.967	62.7	-1.01	91.4
DUSP7	3	-2.03	41.4	-1.54	69.5
LXN	1	1.52	112	0.789	102
LXN	2	3.33 (active)	148	2.17	93.4
LXN	3	-0.0601	80.7	-0.237	96
SYNM	1	0.992	102	1.01	87
SYNM	2	0.241	86.7	-0.682	116
SYNM	3	-0.335	75.2	-0.871	106
RPSAP47	1	-1.25	57.1	-0.541	73.5
RPSAP47	2	-2.38	34.5	-3.25	90.6
RPSAP47	3	-2.89	24.5	-2.56	53.7
ADARB2	1	0.693	95.7	-0.00127	107
ADARB2	2	1.22	106	1.86	72.7
ADARB2	3	-0.836	65.3	-0.483	82.8

Look-ups from the list.
Under “luciferase per cell, z-score”, PHOSPHO1 #3 has -1.4
OR4X2 #1, luciferase per cell, z-score → -0.379
MYL1 #1, total luciferase, z-score = 1.43
Under “viable cells, % of control”, MYL1 #2 has 84.5
KLHL42 #3, luciferase per cell, z-score = 0.341
For “viable cells, % of control”, DUSP7 #1 reads 83.4
